From the supplement of paper PMC7661543
± gives the standard deviation of the averaged measurements. Differences between knockout arms are mostly noise.

Tested on: ZR-75-1
Experiment: relative cell number vs DMSO control (72 h) (% of DMSO); higher = less growth inhibition (more cells)
Procedure: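 QMAP-Seq: a pool of 5 breast cancer cell lines (ZR-75-1, SKBR3, HCC-38, MDA-MB-231, BT-20), each carrying 12 doxycycline-inducible Cas9 sgRNA perturbations (11 knockouts plus non-targeting sgNT), was treated with compounds for 72 h at four 10-fold doses (10 nM-10 uM or 1 nM-1 uM range). Barcodes were amplified and sequenced, and cell number was interpolated from 293T spike-in standard curves. The result is expressed as % of the median of DMSO wells. Two biological replicates.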

[1] = sgRNA knockout: sgATF3, 1000 nM
[2] = sgRNA knockout: sgATF3, 10000 nM
[3] = sgRNA knockout: sgATF4, 1000 nM
[4] = sgRNA knockout: sgATF4, 10000 nM
[5] = sgRNA knockout: sgATF6, 1000 nM
[6] = sgRNA knockout: sgATF6, 10000 nM
[7] = sgRNA knockout: sgATG7, 1000 nM
[8] = sgRNA knockout: sgATG7, 10000 nM
[9] = sgRNA knockout: sgERN1, 1000 nM
[10] = sgRNA knockout: sgERN1, 10000 nM
[11] = sgRNA knockout: sgHSF2, 1000 nM
[12] = sgRNA knockout: sgHSF2, 10000 nM
[13] = sgRNA knockout: sgNFE2L2, 10 nM
[14] = sgRNA knockout: sgNFE2L2, 100 nM
[15] = sgRNA knockout: sgNFE2L2, 1000 nM
[16] = sgRNA knockout: sgNFE2L2, 10000 nM
[17] = sgRNA knockout: sgSLC35F2, 10 nM
[18] = sgRNA knockout: sgSLC35F2, 100 nM
[19] = sgRNA knockout: sgSLC35F2, 1000 nM
[20] = sgRNA knockout: sgSLC35F2, 10000 nM
[21] = sgRNA knockout: sgXBP1, 1000 nM
[22] = sgRNA knockout: sgXBP1, 10000 nM

With CC[C@H](Nc1ncnc2[nH]cnc12)c1nc2cccc(F)c2c(=O)n1-c1ccccc1 [CAL101] the relative cell number (sgRNA knockout: sgATF3, 10 nM) was 88.4 ± 20, the relative cell number (sgRNA knockout: sgATF3, 100 nM) was 110 ± 23 and the relative cell number [1] was 87.5 ± 19. The relative cell number [2] was 106 ± 7.4, the relative cell number (sgRNA knockout: sgATF4, 10 nM) was 99.2 ± 22 and the relative cell number (sgRNA knockout: sgATF4, 100 nM) was 79.3 ± 11. The relative cell number [3] was 98.7 ± 18, the relative cell number [4] was 102 ± 3.6 and the relative cell number (sgRNA knockout: sgATF6, 10 nM) was 95.8 ± 41. For the same compound, the relative cell number (sgRNA knockout: sgATF6, 100 nM) was 66.5 ± 29, the relative cell number [5] was 126 ± 14 and the relative cell number [6] was 48 ± 18. It also gave a relative cell number (sgRNA knockout: sgATG7, 10 nM) of 80.9 ± 2.8, a relative cell number (sgRNA knockout: sgATG7, 100 nM) of 91.2 ± 33 and a relative cell number [7] of 84.7 ± 9.2. It also gave a relative cell number [8] of 102 ± 40, a relative cell number (sgRNA knockout: sgERN1, 10 nM) of 93.1 ± 17 and a relative cell number (sgRNA knockout: sgERN1, 100 nM) of 81.4 ± 2. For the same compound, the relative cell number [9] was 81.5 ± 8.7, the relative cell number [10] was 79.8 ± 27 and the relative cell number (sgRNA knockout: sgHSF2, 10 nM) was 106 ± 26. The relative cell number (sgRNA knockout: sgHSF2, 100 nM) was 99.8 ± 25, the relative cell number [11] was 105 ± 13 and the relative cell number [12] was 84.3 ± 22. It also gave a relative cell number [13] of 84.9 ± 14, a relative cell number [14] of 104 ± 9.2 and a relative cell number [15] of 92 ± 3.5. It also gave a relative cell number [16] of 70.5 ± 2.5, a relative cell number [17] of 89.6 ± 34 and a relative cell number [18] of 100 ± 76. For the same compound, the relative cell number [19] was 72.6 ± 21, the relative cell number [20] was 111 ± 60 and the relative cell number (sgRNA knockout: sgXBP1, 10 nM) was 85.4 ± 12. The relative cell number (sgRNA knockout: sgXBP1, 100 nM) was 98.8 ± 6.6, the relative cell number [21] was 91.7 ± 6.7 and the relative cell number [22] was 77.4 ± 18.
C=C1C(=O)O[C@H]2[C@H]1CC/C(C)=C/CC[C@@]1(C)O[C@@H]21 [Parthenolide] gave a relative cell number (sgRNA knockout: sgATF3, 10 nM) of 125 ± 9.2, a relative cell number (sgRNA knockout: sgATF3, 100 nM) of 95.8 ± 40 and a relative cell number [1] of 88.74 ± 0.86. For the same compound, the relative cell number [2] was 106 ± 2.3, the relative cell number (sgRNA knockout: sgATF4, 10 nM) was 139 ± 45 and the relative cell number (sgRNA knockout: sgATF4, 100 nM) was 128 ± 60. It also gave a relative cell number [3] of 113 ± 15, a relative cell number [4] of 82 ± 7.1 and a relative cell number (sgRNA knockout: sgATF6, 10 nM) of 98.7 ± 23. It also gave a relative cell number (sgRNA knockout: sgATF6, 100 nM) of 147 ± 47, a relative cell number [5] of 55.1 ± 15 and a relative cell number [6] of 104 ± 22. The relative cell number (sgRNA knockout: sgATG7, 10 nM) was 99.1 ± 20, the relative cell number (sgRNA knockout: sgATG7, 100 nM) was 123 ± 1.9 and the relative cell number [7] was 91.2 ± 49. It also gave a relative cell number [8] of 101 ± 36, a relative cell number (sgRNA knockout: sgERN1, 10 nM) of 123 ± 28 and a relative cell number (sgRNA knockout: sgERN1, 100 nM) of 92.7 ± 34. It also gave a relative cell number [9] of 96.3 ± 14, a relative cell number [10] of 115 ± 19 and a relative cell number (sgRNA knockout: sgHSF2, 10 nM) of 102 ± 17. The relative cell number (sgRNA knockout: sgHSF2, 100 nM) was 97.4 ± 18, the relative cell number [11] was 107 ± 13 and the relative cell number [12] was 94.4 ± 16. For the same compound, the relative cell number [13] was 115 ± 20, the relative cell number [14] was 111 ± 20 and the relative cell number [15] was 109 ± 51. For the same compound, the relative cell number [16] was 107 ± 12, the relative cell number [17] was 70.7 ± 7.9 and the relative cell number [18] was 96.7 ± 17. It also gave a relative cell number [19] of 70.5 ± 10, a relative cell number [20] of 96 ± 43 and a relative cell number (sgRNA knockout: sgXBP1, 10 nM) of 94.7 ± 2.5. The relative cell number (sgRNA knockout: sgXBP1, 100 nM) was 99.8 ± 26, the relative cell number [21] was 105 ± 12 and the relative cell number [22] was 108.03 ± 0.059.
C[C@@H](Nc1cc(F)cc(F)c1)c1cc(C(=O)N(C)C)cc2c(=O)cc(N3CCOCC3)oc12 [AZD8186] gave a relative cell number (sgRNA knockout: sgATF3, 10 nM) of 124 ± 50, a relative cell number (sgRNA knockout: sgATF3, 100 nM) of 88.7 ± 29 and a relative cell number [1] of 104 ± 13. It also gave a relative cell number [2] of 60.1 ± 8.9, a relative cell number (sgRNA knockout: sgATF4, 10 nM) of 98.78 ± 0.38 and a relative cell number (sgRNA knockout: sgATF4, 100 nM) of 118 ± 32. It also gave a relative cell number [3] of 88.6 ± 16, a relative cell number [4] of 59.3 ± 10 and a relative cell number (sgRNA knockout: sgATF6, 10 nM) of 82.7 ± 19. For the same compound, the relative cell number (sgRNA knockout: sgATF6, 100 nM) was 66.7 ± 2.4, the relative cell number [5] was 92.5 ± 35 and the relative cell number [6] was 88 ± 28. For the same compound, the relative cell number (sgRNA knockout: sgATG7, 10 nM) was 63 ± 0.65, the relative cell number (sgRNA knockout: sgATG7, 100 nM) was 98.7 ± 7.5 and the relative cell number [7] was 67.8 ± 1.9. For the same compound, the relative cell number [8] was 57.9 ± 7.8, the relative cell number (sgRNA knockout: sgERN1, 10 nM) was 87.1 ± 8.4 and the relative cell number (sgRNA knockout: sgERN1, 100 nM) was 112 ± 37. It also gave a relative cell number [9] of 72 ± 0.9, a relative cell number [10] of 46.3 ± 6.4 and a relative cell number (sgRNA knockout: sgHSF2, 10 nM) of 85.6 ± 38. The relative cell number (sgRNA knockout: sgHSF2, 100 nM) was 88 ± 4.6, the relative cell number [11] was 65.8 ± 14 and the relative cell number [12] was 65.4 ± 9.5. For the same compound, the relative cell number [13] was 92.4 ± 41, the relative cell number [14] was 74.4 ± 3.6 and the relative cell number [15] was 83.5 ± 5.6. The relative cell number [16] was 53.2 ± 2.6, the relative cell number [17] was 113 ± 2.7 and the relative cell number [18] was 128 ± 19. For the same compound, the relative cell number [19] was 103 ± 19, the relative cell number [20] was 70.2 ± 31 and the relative cell number (sgRNA knockout: sgXBP1, 10 nM) was 92.9 ± 8.2. For the same compound, the relative cell number (sgRNA knockout: sgXBP1, 100 nM) was 78.7 ± 10, the relative cell number [21] was 88.3 ± 4 and the relative cell number [22] was 52.6 ± 7.7.
Compound O=C(Cc1ccc(-c2ccc(OCCN3CCOCC3)cc2)cn1)NCc1ccccc1 [KX2391] has a relative cell number (sgRNA knockout: sgATF3, 10 nM) of 162 ± 22, a relative cell number (sgRNA knockout: sgATF3, 100 nM) of 42.9 ± 13 and a relative cell number [1] of 20.8 ± 7. The relative cell number [2] was 27.8 ± 1.3, the relative cell number (sgRNA knockout: sgATF4, 10 nM) was 147 ± 75 and the relative cell number (sgRNA knockout: sgATF4, 100 nM) was 38 ± 5.9. It also gave a relative cell number [3] of 20.2 ± 0.84, a relative cell number [4] of 27.6 ± 4.5 and a relative cell number (sgRNA knockout: sgATF6, 10 nM) of 131 ± 89. For the same compound, the relative cell number (sgRNA knockout: sgATF6, 100 nM) was 25.8 ± 11, the relative cell number [5] was 13.9 ± 5.9 and the relative cell number [6] was 14.5 ± 14. For the same compound, the relative cell number (sgRNA knockout: sgATG7, 10 nM) was 159 ± 68, the relative cell number (sgRNA knockout: sgATG7, 100 nM) was 30.9 ± 5.8 and the relative cell number [7] was 18.4 ± 4.2. For the same compound, the relative cell number [8] was 12.8 ± 0.2, the relative cell number (sgRNA knockout: sgERN1, 10 nM) was 150 ± 54 and the relative cell number (sgRNA knockout: sgERN1, 100 nM) was 50 ± 16. It also gave a relative cell number [9] of 18.9 ± 0.63, a relative cell number [10] of 24.6 ± 13 and a relative cell number (sgRNA knockout: sgHSF2, 10 nM) of 139 ± 31. The relative cell number (sgRNA knockout: sgHSF2, 100 nM) was 38.1 ± 6.2, the relative cell number [11] was 26.4 ± 3.5 and the relative cell number [12] was 20.6 ± 2.2. The relative cell number [13] was 138 ± 58, the relative cell number [14] was 39.1 ± 14 and the relative cell number [15] was 25.1 ± 9.7. For the same compound, the relative cell number [16] was 21.8 ± 2, the relative cell number [17] was 45.2 ± 0.95 and the relative cell number [18] was 21.3 ± 0.77. It also gave a relative cell number [19] of 20.7 ± 4.7, a relative cell number [20] of 23.5 ± 11 and a relative cell number (sgRNA knockout: sgXBP1, 10 nM) of 140 ± 46. The relative cell number (sgRNA knockout: sgXBP1, 100 nM) was 35.5 ± 2.1, the relative cell number [21] was 21.7 ± 3.5 and the relative cell number [22] was 16.8 ± 1.2.
